Strings that start with PEPTIDE1 are HELM notation: dots part the residues, brackets hold end groups and non-standard residues.
Assay: general procedure: Fmoc solid-phase peptide synthesis; 2-chlorotrityl resin; HATU/DIEA (collidine for Cys); HBTU/HOBt for chloroacetic acid
Conditions: for final HPLC purity: peak integration
[1] = whole synthesis, scale 2.75 mmol

Which “final HPLC purity” value (conjugation step, UV 220 nm) does the source give for “PEPTIDE1{Y.[dW].K.T.F.[meHcy]}|PEPTIDE2{[CH2CO].[bDap].[Dab].C.[Tol]}$PEPTIDE1,PEPTIDE1,1:R1-6:R2|PEPTIDE1,PEPTIDE2,6:R3-1:R1$$$V2.0” here?
Its value is “greater than 95%”.

For cyclo-Tyr-D-Trp-Lys-Thr-Phe-(N—CH3)Hcy, which “final HPLC purity” value (whole synthesis, UV 220 nm, scale of the general procedure 2.75 mmol) is on record?
Its value is >95%.

And the crude mass [1]?
The crude mass was 4.23 g.

And the isolated mass [1]?
Its isolated mass is 510 mg.

What does the source list for “ClCH2CO-β-Dap(Boc)-Dab(Boc)-Cys(Trt)-Thr(tBu)(ol)”?
final HPLC purity (whole synthesis, scale of the general procedure 2.75 mmol): greater than 90%; isolated mass (whole synthesis, scale 2.76 mmol): 970 mg
